How the values were obtained:
[1] = Evaluation by trained and/or certified flavor or fragrance chemists or master perfumers; categorization by commercial prospect; conditions: for Rating: category of commercial prospect, (A) highest > (B) > (C) > (D) lowest, (E) requires further study; for Rating (category of commercial prospect): evaluation by trained flavor or fragrance chemists or master perfumers
odor evaluation panel = assay: Odor evaluation panel rating of odorants by Rate-All-That-Apply (RATA) method with 55-word odor lexicon, plus intensity and pleasantness; design: species or system human; conditions: for Floral: mean panelist score for odor label floral (RATA); for Fruity: mean panelist score for odor label fruity (RATA); for Spicy: mean panelist score for odor label spicy (RATA); for Sweet: mean panelist score for odor label sweet (RATA); for Pleasantness: mean panelist score for odor pleasantness

| Compound | Rating [1] | Floral (odor evaluation panel) | Fruity (odor evaluation panel) | Spicy (odor evaluation panel) | Sweet (odor evaluation panel) | Pleasantness (odor evaluation panel) | Rating (category of commercial prospect) [1] |
| --- | --- | --- | --- | --- | --- | --- | --- |
| C=CC(O)C#CC(C)(C)C (stereo not drawn) [Compound 277, 6,6-dimethylhept-1-en-4-yn-3-ol] | (D) | 0.281 | 0 | 0.375 | 0.188 | 4.372 | – |
| CC1(C)CC(=O)c2ccccc21 [Compound 988, 3,3-dimethyl-2H-inden-1-one] | – | 0.625 | 0.406 | 0.312 | 0.719 | 5.072 | (A) |
| CCNCCC#N [Compound 281] | (D) | 0.031 | 0 | 0.062 | 0.281 | 3.497 | – |
| CCc1ncc(C)[nH]1 [Compound 85, 2-ethyl-5-methyl-1H-imidazole] | (C) | 0 | 0 | 0.111 | 0.306 | – | – |
| c1scc2c1OCCO2 [Compound 131, 2,3-dihydrothieno[3,4-b][1,4]dioxine] | (D) | 0.457 | 0 | 0.4 | 0.143 | 3.394 | – |
| CN(CCO)c1ccccn1 [Compound 517, 2-[methyl(pyridin-2-yl)amino]ethanol] | (D) | 0.387 | 0.161 | 0.032 | 0.645 | 5.577 | – |
| c1ccc2c(c1)COC2 [Compound 263, 1,3-dihydro-2-benzofuran] | (A) | 0.938 | 1.188 | 0.781 | 1.875 | 6.453 | – |
| Cc1cccc(C)c1[N+](=O)[O-] [Compound 756, 1,3-dimethyl-2-nitrobenzene] | – | 0.233 | 0.2 | 0.7 | 0.833 | 4.933 | (D) |
| Cc1ccc2ocnc2c1 [Compound 282, 5-methyl-1,3-benzoxazole] | (D) | 0.088 | 0.059 | 0.735 | 0.971 | 4.512 | – |
| C/C=C1\C[C@@H]2C=C[C@H]1C2 [Compound 125, (1R,4R,5E)-5-ethylidenebicyclo[2.2.1]hept-2-ene] | (C) | 0.139 | 0.556 | 0.194 | 0.333 | – | – |
| CC1(C)Cc2cccc(O)c2O1 [Compound 963, 2,2-dimethyl-3H-1-benzofuran-7-ol] | – | 0 | 0 | 0.167 | 0.194 | – | (B) |
| CCOC(=O)c1cc(C)nn1C [Compound 762, ethyl 2,5-dimethylpyrazole-3-carboxylate] | – | 0.286 | 0.029 | 1.029 | 0.914 | 4.606 | (A) |
| O=C1OC(=O)C2CC=CCC12 (stereo not drawn) [Compound 694, 3a,4,7,7a-tetrahydro-2-benzofuran-1,3-dione] | – | 0.083 | 0 | 0.028 | 0 | – | (D) |
| CCCC1CCC(O)CC1 (stereo not drawn) [Compound 757, 4-propylcyclohexan-1-ol] | – | 1.457 | 0.143 | 0.371 | 0.771 | 5.289 | (A) |
| CCC1(O)C2CC3CC(C2)CC1C3 (stereo not drawn) [Compound 41, 2-ethyladamantan-2-ol] | (A) | 0.032 | 0.032 | 0.065 | 0.452 | 5.516 | – |
| CN1CCCC1CCO (stereo not drawn) [Compound 625, 2-(1-methylpyrrolidin-2-yl)ethanol] | – | 0.061 | 0 | 0.061 | 0.152 | 5.952 | (D) |
| Cc1cc(C)cc(C(C)(C)C)c1 [Compound 896, 1-tert-butyl-3,5-dimethylbenzene] | – | 0 | 0 | 0.194 | 0.194 | – | (D) |
| CCOC(=O)CC(=O)C1CC1 [Compound 505, ethyl 3-cyclopropyl-3-oxopropanoate] | (A) | 0.156 | 1.906 | 0 | 1.844 | 6.553 | – |
| CC1CN(C(=O)OC(C)(C)C)CCN1 (stereo not drawn) [Compound 419, tert-butyl 3-methylpiperazine-1-carboxylate] | (D) | 0.094 | 0 | – | 1 | 6.516 | – |
| CCCCC(=O)c1ccc(C)cc1 [Compound 257, 1-(4-methylphenyl)pentan-1-one] | (C) | 0.867 | 2.4 | 0.4 | 1.833 | 7.283 | – |
| c1cnn(C2CCCCO2)c1 (stereo not drawn) [Compound 188, 1-(oxan-2-yl)pyrazole] | (D) | 0.629 | 0.171 | 0.229 | 0.457 | 4.757 | – |
| C=C(c1ccccc1)c1ccccc1 [Compound 820, 1-phenylethenylbenzene] | – | 0.125 | 0.188 | 0.469 | 0.219 | 5.028 | (D) |
| CCOC(=O)C(=O)c1cccs1 [Compound 318, ethyl 2-oxo-2-thiophen-2-ylacetate] | (D) | 0.062 | 0 | 0.281 | 0.188 | 4.362 | – |
| CC(=O)c1cccc(C#N)c1 [Compound 121, 3-acetylbenzonitrile] | (C) | 0.486 | 0.229 | 0.314 | 1.029 | 4.283 | – |
| CCc1nnc(N)s1 [Compound 889, 5-ethyl-1,3,4-thiadiazol-2-amine] | – | 0.156 | 0.281 | 0.344 | 0.312 | 3.534 | (D) |
| CCC1=C(C)CNC1=O [Compound 710, 4-ethyl-3-methyl-1,2-dihydropyrrol-5-one] | – | 0.143 | 0.114 | 0 | 0.486 | 5.183 | (D) |
| COC(=O)c1c(C)csc1N [Compound 550, methyl 2-amino-4-methylthiophene-3-carboxylate] | (C) | 0.086 | 0 | 0.257 | 0 | 2.509 | – |

— US20250075147A1, “FRAGRANCE AND FLAVOR COMPOSITIONS COMPRISING NEW FLAVOR AND FRAGRANCE INGREDIENTS” (priority 2023, published 2025)
